Assay results as given in the supplement of paper PMC10689618.
Where a name gives a salt, the structure may show the parent alone. This is one part of the list. Single values are uncertain, as repeats are few or missing.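 Labelled rat cortical synaptosomes were engulfed by primary human fetal astrocytes. Engulfment equaled a red/green ratio, corrected for calcein live-cell signal and normalized to the plate median. Compounds were toxic when calcein dropped over 30%, and reduced phagocytosis when below 70% of the median above 5 µM.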

Tests used:
Human fetal astrocytes [1] = experiment: loss of total cells relative to no-compound high-control median (toxicity); higher = more toxic (fewer cells); conditions: 24 h
Human fetal astrocytes [2] = experiment: synaptosome phagocytosis (pHrodo/calcein intensity ratio) relative to plate median of data wells; higher = more phagocytosis; conditions: 24 h

Compound | loss of total cells (Human fetal astrocytes [1]; 1.39 µM) [%] | loss of total cells (Human fetal astrocytes [1]; 2.78 µM) [%] | loss of total cells (Human fetal astrocytes [1]; 5.56 µM) [%] | loss of total cells (Human fetal astrocytes [1]; 11.11 µM) [%] | loss of total cells (Human fetal astrocytes [1]; 22.22 µM) [%] | synaptosome phagocytosis (Human fetal astrocytes [2]; 1.39 µM) [%] | synaptosome phagocytosis (Human fetal astrocytes [2]; 2.78 µM) [%] | synaptosome phagocytosis (Human fetal astrocytes [2]; 5.56 µM) [%] | synaptosome phagocytosis (Human fetal astrocytes [2]; 11.11 µM) [%] | synaptosome phagocytosis (Human fetal astrocytes [2]; 22.22 µM) [%]
CC(=O)C1CCC2C3CCC4C[C@H](O)CCC4(C)C3C[C@H](O)C12C (stereo partly drawn) [DIHYDROXY (3alpha,12alpha)PREGNAN-20-ONE] | -6.2 | -4.7 | 35.1 | 14.2 | 11.5 | 86.5 | 99.5 | 94.6 | 112 | 115
CCCC(C)C1(CC)C(=O)NC(=S)NC1=O (stereo not given) | -9.1 | -15.5 | 7.5 | -7.8 | -14.2 | 120 | 105 | 100 | 82.6 | 114
C=CCc1ccc2c(c1)OCO2 | -8.2 | 6.1 | 3.7 | 3.4 | 3.7 | 141 | 105 | 98.9 | 106 | 71.8
C[N+]12CCC(CC1)C(OC(=O)C(O)(c1ccccc1)c1ccccc1)C2 (stereo not given) | 5.6 | -19.3 | 4.9 | -29.7 | -8.2 | 132 | 98.3 | 111 | 119 | 100
CC(=O)[C@H]1CC[C@H]2[C@@H]3CC[C@H]4C[C@H](O)CC[C@]4(C)[C@H]3CC[C@]12C | -22.1 | -0.7 | 27.5 | 9 | 7 | 94.2 | 93.5 | 113 | 100 | 108
CO[C@H]1[C@H](O)[C@H](O[C@H]2CC[C@@]3(C=O)[C@H](CC[C@@H]4[C@@H]3CC[C@]3(C)[C@@H](C5=CC(=O)OC5)CC[C@]43O)C2)O[C@@H](C)[C@@H]1O | 15.5 | 0.4 | 7.2 | -7.9 | 9.8 | 60.7 | 18.4 | 18.5 | 39.2 | 21.9
CCC(C)C(=O)OC1CC2(C)C(c3ccoc3)OC(=O)CC23OC2(C)OC34C(OC(=O)C(C)C)C3(O)C(OC(=O)C5(C)OC5C)C5(C)CC3(O)C(C)(C5CC(=O)OC)C14O2 (stereo not given) | 11.2 | -8 | -22.9 | 31 | 15.9 | 161 | 108 | 102 | 136 | 128
c1cc2c(cc1[C@H]1OC[C@H]3[C@@H]1CO[C@H]3c1ccc3c(c1)OCO3)OCO2 | -1.6 | 10.5 | 11.7 | 4.1 | 4.4 | 99.3 | 109 | 112 | 81 | 113
CC(=O)O[C@@H]1C[C@H]2C(C)(C)C(=O)C=C[C@]2(C)[C@H]2CC[C@]3(C)C(=CC(=O)O[C@H]3c3ccoc3)[C@@]21C | -21.4 | 8.6 | 12.2 | 39.4 | -18.1 | 106 | 99.1 | 95.1 | 128 | 56.1
c1ccc2c(c1)[nH]c1cnccc12 | 4.7 | 11.2 | 15.2 | -10.5 | 22 | 94.1 | 89.8 | 103 | 106 | 139
C[C@]12CC[C@H](O)C[C@@H]1CC[C@@H]1[C@@H]2CC[C@]2(C)C(=O)CC[C@@H]12 | -7.4 | 1.8 | -6.6 | 16.2 | 9.6 | 132 | 101 | 78.3 | 131 | 106
OC[C@@H]1CCCN2CCCC[C@H]12 | -13.1 | -11.9 | 2.2 | 8.8 | 7.4 | 117 | 116 | 89.5 | 95.9 | 114
CN=C1CN(O)C(c2ccccc2)=c2cc(Cl)ccc2=N1 | -11.2 | -4 | -26 | 7.1 | -15.2 | 91.5 | 89.9 | 75.5 | 92.7 | 95.9
Cc1cc(OC(=O)N2CCCCC2)c(C(C)C)cc1[N+](C)(C)C | 9 | -4 | 13.9 | 12.2 | 8.1 | 103 | 88.2 | 96.3 | 118 | 55.6
COc1cc2c(cc1OC)[C@@H]1C(=O)c3ccc4c(c3O[C@@H]1CO2)CC(C(C)C)O4 (stereo not given in full) | 37.2 | 37.2 | 25.4 | 26.4 | 50.8 | 77.7 | 55.5 | 94.2 | 86.7 | 107
O=C(O)CF | -2.5 | 1.8 | 10.9 | -17.2 | -4.5 | 90.9 | 100 | 84.8 | 118 | 131
CC(=O)[O][Hg][c]1ccccc1 | 96.4 | 99.3 | 105 | 101 | 104 | 0 | 0 | 0 | 0 | 0

Compound | loss of total cells (Human fetal astrocytes [1]; 1.39 µM) [%] | loss of total cells (Human fetal astrocytes [1]; 2.78 µM) [%] | loss of total cells (Human fetal astrocytes [1]; 5.56 µM) [%] | loss of total cells (Human fetal astrocytes [1]; 11.11 µM) [%] | loss of total cells (Human fetal astrocytes [1]; 22.22 µM) [%] | synaptosome phagocytosis (Human fetal astrocytes [2]; 1.39 µM) [%] | synaptosome phagocytosis (Human fetal astrocytes [2]; 2.78 µM) [%] | synaptosome phagocytosis (Human fetal astrocytes [2]; 5.56 µM) [%] | synaptosome phagocytosis (Human fetal astrocytes [2]; 11.11 µM) [%] | synaptosome phagocytosis (Human fetal astrocytes [2]; 22.22 µM) [%]
CCC1(CC)C(=O)C=CNC1=O | 5.4 | 1.8 | 5.8 | -9.6 | 19.7 | 70.8 | 96.4 | 84.4 | 99.3 | 89.8
O=c1cccc2n1CC1CC2CN2CCCC[C@@H]12 (stereo not given in full) | -34.4 | -0.4 | 2.9 | 6.8 | -0.7 | 61.8 | 90.3 | 105 | 93.1 | 77.9
CC(=O)OC1CCC23C(=O)OC45CCC(C6=CC(=O)OC6)C4(C)CCC2C5CCC3(O)C1 (stereo not given) | 19.1 | 19.9 | 18.8 | 19.7 | 12.1 | 79.4 | 74.5 | 49.9 | 43.3 | 48.4
Cc1cc2c(C(C)C)c(O)c(O)c(C=O)c2c(O)c1-c1c(C)cc2c(C(C)C)c(O)c(O)c(C=O)c2c1O | -18.9 | -6.1 | -2.2 | 19.6 | 22.2 | 105 | 124 | 97.4 | 71.9 | 75.3
CC(C)c1ccc2c(c1O)CC[C@H]1C3=C(CC[C@]21C)C(=O)OC3 | -21.3 | -23.5 | -2.2 | 16.2 | -0.7 | 69.8 | 54.5 | 57.1 | 32.1 | 21.9
CC[C@H]1CN2CCc3cc(OC)c(OC)cc3[C@@H]2C[C@@H]1C[C@H]1NCCc2cc(OC)c(OC)cc21 | 13.4 | -5.8 | -0.7 | 31.4 | 50.2 | 53.9 | 38 | 19.5 | 26 | 54.4
CC[N+]1(C)CCCC(OC(=O)C(O)(c2ccccc2)c2ccccc2)C1 (stereo not given) | 6.9 | 10.5 | 5.1 | -10.5 | 0.8 | 127 | 123 | 105 | 81.9 | 102
C=C[C@H]1CN2CC[C@H]1C[C@H]2[C@H](OC(=O)OCC)c1ccnc2ccc(OC)cc12 | 15.5 | 6.9 | 2.9 | 6.3 | 15.9 | 91.3 | 83 | 87.7 | 127 | 105
COc1ccc(Cc2nccc3cc(OC)c(OC)cc23)cc1OC [Papaverine hydrochloride] | 16.6 | -0.9 | 1.5 | 14.8 | 11.9 | 89.2 | 86.5 | 74.9 | 69.4 | 77.2
COc1cc2c(cc1OC)[C@@]13CCN4CC5=CCO[C@H]6CC(=O)N2[C@H]1[C@H]6[C@H]5C[C@H]43 | 11 | -7.8 | -8.4 | -1.4 | -21.6 | 123 | 120 | 84.8 | 88.4 | 108
C#CCN(C)[C@H](C)Cc1ccccc1 | -21.4 | 2.7 | 26.7 | -20 | 21.9 | 82.8 | 97.3 | 118 | 74.9 | 117
COC1=CC(=O)O[C@@H](/C=C/c2ccccc2)C1 | 27.1 | 18.4 | 9.4 | 1.3 | 23.5 | 52.6 | 146 | 104 | 70.8 | 126
C[C@H]1C(=O)O[C@@H]2CCN3CC=C(COC(=O)[C@](C)(O)[C@]1(C)O)[C@H]23 | -31.1 | -7.6 | -0.7 | 11.5 | -3.7 | 86.8 | 111 | 85.8 | 120 | 128
C=CCc1cc(OC)c2c(c1OC)OCO2 | 2.5 | 6.9 | -62.3 | 2.1 | 17.4 | 89.5 | 125 | 0 | 117 | 115
CCC(COC(=O)c1cc(OC)c(OC)c(OC)c1)(c1ccccc1)N(C)C (stereo not given) | -2.5 | -62.5 | 8 | -16.3 | 7.6 | 106 | 3.8 | 126 | 126 | 110
CC(C)c1cc2c(c(O)c1O)[C@@]1(C(=O)O)CCCC(C)(C)[C@@H]1CC2 | -1.6 | 10.5 | -0.7 | 19.6 | 24.4 | 109 | 102 | 127 | 76.1 | 88
CC(=O)O[C@H]1C[C@@H]2CC[C@@H]3[C@H](CC[C@@]4(C)[C@H]3C[C@H]([N+]3(C)CCCCC3)[C@@H]4OC(C)=O)[C@@]2(C)C[C@@H]1[N+]1(C)CCCCC1 | -39.5 | 17.5 | 5.6 | 49.5 | 2.2 | 107 | 157 | 79.7 | 176 | 130

Random excerpt: 3 compounds from above.
Compound | loss of total cells (Human fetal astrocytes [1]; 1.39 µM) [%] | loss of total cells (Human fetal astrocytes [1]; 2.78 µM) [%] | loss of total cells (Human fetal astrocytes [1]; 5.56 µM) [%] | loss of total cells (Human fetal astrocytes [1]; 11.11 µM) [%] | loss of total cells (Human fetal astrocytes [1]; 22.22 µM) [%] | synaptosome phagocytosis (Human fetal astrocytes [2]; 1.39 µM) [%] | synaptosome phagocytosis (Human fetal astrocytes [2]; 2.78 µM) [%] | synaptosome phagocytosis (Human fetal astrocytes [2]; 5.56 µM) [%] | synaptosome phagocytosis (Human fetal astrocytes [2]; 11.11 µM) [%] | synaptosome phagocytosis (Human fetal astrocytes [2]; 22.22 µM) [%]
CC(C)c1ccc2c(c1O)CC[C@H]1C3=C(CC[C@]21C)C(=O)OC3 | -21.3 | -23.5 | -2.2 | 16.2 | -0.7 | 69.8 | 54.5 | 57.1 | 32.1 | 21.9
CC[N+]1(C)CCCC(OC(=O)C(O)(c2ccccc2)c2ccccc2)C1 (stereo not given) | 6.9 | 10.5 | 5.1 | -10.5 | 0.8 | 127 | 123 | 105 | 81.9 | 102
COC1=CC(=O)O[C@@H](/C=C/c2ccccc2)C1 | 27.1 | 18.4 | 9.4 | 1.3 | 23.5 | 52.6 | 146 | 104 | 70.8 | 126
